According to PubChem BioAssay AID720504 (National Center for Advancing Translational Sciences (NCATS), 2013):
The campaign covered roughly 360,000 compounds. About 10,000 (2.8%) were called active. Inconclusive results, whose numbers are uncertain, are shown with a selection of clear calls. The call rests on the fitted dose curve; in most records, active means well fitted inhibition curve with a large enough effect; inconclusive means small, poorly fitted or top-dose-only effect; inactive means flat fitted curve, though single readings scatter. Potencies beside an inconclusive call are fits to weak or partial responses and may not hold up.

Amino acid sequences for entries named in this document (tags omitted).
UniProt P53350, whole entry, looked up: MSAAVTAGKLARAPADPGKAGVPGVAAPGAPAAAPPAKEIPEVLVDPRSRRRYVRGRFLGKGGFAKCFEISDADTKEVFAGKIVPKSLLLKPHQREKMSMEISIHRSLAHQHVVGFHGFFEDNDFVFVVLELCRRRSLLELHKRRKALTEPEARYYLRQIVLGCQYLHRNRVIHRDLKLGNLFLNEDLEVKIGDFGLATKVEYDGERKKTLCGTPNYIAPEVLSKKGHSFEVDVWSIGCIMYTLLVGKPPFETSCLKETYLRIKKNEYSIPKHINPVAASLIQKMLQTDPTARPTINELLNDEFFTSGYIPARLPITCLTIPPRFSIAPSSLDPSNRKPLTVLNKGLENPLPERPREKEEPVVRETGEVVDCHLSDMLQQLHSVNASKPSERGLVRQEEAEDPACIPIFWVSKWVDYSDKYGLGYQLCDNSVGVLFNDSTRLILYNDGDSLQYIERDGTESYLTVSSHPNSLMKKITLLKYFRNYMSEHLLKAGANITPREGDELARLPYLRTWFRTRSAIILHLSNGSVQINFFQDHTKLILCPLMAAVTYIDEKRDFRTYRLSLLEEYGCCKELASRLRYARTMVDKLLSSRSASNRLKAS

Molecular target: Serine/threonine-protein kinase PLK1 (Homo sapiens) (UniProt P53350)
Assay: qHTS for Inhibitors of PLK1-PDB (polo-like kinase 1 - polo-box domain): Primary Screen; further: nearly all actives have a fitted effect of over 65% in size; on max response, negative = inhibition: series mostly up to about 57 µM
Conditions: Plk1 PBD binding of FITC phosphopeptide, fluorescence polarization
On the % scale 0 is the no-effect control and ±100 the full control effect; potency means the concentration at half of the fitted maximal effect.

Row | Compound | max response, negative = inhibition | Potency
1 | Cc1[nH]n(-c2ccccc2)c(=O)c1C=NC1CCCCCC1 | inactive: -12.5% | –
2 | CCCCC(=O)NC(=S)NNC(=O)CCc1ccccc1 | – | inconclusive: 29.9 µM [inhibitor, single point]
3 | COCCn1c(=S)[nH]c2cc(C(=O)N3CCc4ccccc4C3)ccc2c1=O | – | inconclusive: 23.8 µM [inhibitor, single point]
4 | O=C(Nc1ccccc1N1CCOCC1)c1ccc([N+](=O)[O-])s1 | – | inconclusive: 33.6 µM [inhibitor, partial curve]
5 | NC(=S)NN=C1C2CC3CC(C2)CC1C3 | – | active: 18.9 µM
6 | COc1ccc2c(c1)CCCC(Br)C2=O (configuration not stated) | – | active: 10.6 µM
7 | COc1ccc(-c2cc(C(F)(F)F)nc(S(C)(=O)=O)n2)cc1OC | – | inconclusive: 21.2 µM [inhibitor, partial curve]
8 | Cc1ccc(NC(=O)Cc2ccc3c(c2)CCCC3)cc1C | – | inconclusive: 21.2 µM [inhibitor, partial curve]
9 | O=C(NCc1cccnc1)c1c(F)c(F)c(F)c(F)c1F | – | inconclusive: 16.8 µM [inhibitor, partial curve]
10 | O=C(CN1C(=O)COc2ccc(S(=O)(=O)N3CCCC3)cc21)NC1CC1 | – | inconclusive: 37.7 µM [inhibitor, single point]
11 | CC1CCCCCCC1OC(=O)c1ccccc1C(=O)O (configuration not stated) | inactive: -4.14% | –
12 | CCOc1cc(/C=C2/SC(=S)NC2=O)ccc1OC(=O)c1ccco1 | – | active: 21.2 µM
13 | Cn1c(SCc2ccccc2)nc(C(F)(F)F)cc1=O | – | inconclusive: 37.7 µM [inhibitor, single point]
14 | CCCNC(=S)N1CCC(NC(=O)C2CCCCC2)CC1 | – | active: 23.8 µM
15 | CC(C)[C@H]1COCCS(=O)(=O)N1Cc1ccccc1-c1ccccc1 | – | active: 23.8 µM
16 | Cc1sc2ccccc2[n+]1CCC(C)S(=O)(=O)[O-] (configuration not stated) | – | inconclusive: 33.6 µM [inhibitor, partial curve]
17 | N#CCCn1cc(/C=N/O)c(-c2ccc(F)cc2)n1 | inactive: -0.309% | –
18 | CC(=O)Oc1ccc2c(=O)c(Oc3ccccc3)coc2c1OC(C)=O | – | inconclusive: 37.7 µM [inhibitor, partial curve]
19 | CC(C)SC1=NC(C)(C)C=C(/C=C/c2ccc(Cl)cc2Cl)N1 | inactive: -28% | –
20 | Cc1ccc(N2C(=O)CC(N3CCN(c4ccccn4)CC3)C2=O)cc1 (configuration not stated) | – | inconclusive: 6.7 µM [inhibitor, single point]
21 | Cc1ccc(NC(=O)c2ccc3c(c2)NC(=O)CS3)nc1 | – | inconclusive: 23.8 µM [inhibitor, partial curve]
22 | CC(C)CSC1=NSC2=NC(=O)/C(=C\c3ccccc3)C(=N)N12 | – | active: 26.7 µM
23 | CCOC(=O)C(C)Oc1cccc2c(=O)n(CC(=O)N3CCCc4ccccc43)ccc12 (configuration not stated) | inactive: -19% | –
24 | CC(=O)N1CCc2c(sc(NC(=O)C3CC3)c2-c2nc3ccccc3s2)C1 | – | inconclusive: 26.7 µM [inhibitor, partial curve]

Whole records, looked up by structure.
CC(C)CSC1=NSC2=NC(=O)/C(=C\c3ccccc3)C(=N)N12 as listed: Potency: active: 26.7 µM
CC(=O)N1CCc2c(sc(NC(=O)C3CC3)c2-c2nc3ccccc3s2)C1 as listed: Potency: inconclusive: 26.7 µM [inhibitor, partial curve]

Additional records:

Row | Compound | max response, negative = inhibition | Potency
25 | COc1cc(NC(=S)N2CCN(C(=O)c3ccco3)CC2)c(OC)cc1Cl | – | inconclusive: 15 µM [inhibitor, partial curve]
26 | N#C/C(=C/c1cccn1-c1cccc(C(=O)O)c1)c1ccc(Cl)cc1 | – | active: 29.9 µM
27 | COc1ccc(C2=NN(C(=O)COc3ncnc4ccccc34)C(c3ccco3)C2)cc1 (configuration not stated) | inactive: -5.49% | –
28 | COc1ccccc1[C@H]1C(c2ccccc2)=NN(c2ccccc2)[C@@H]1CO | inactive: -5.27% | –
29 | COc1cccc(C(=O)N2CCSC2=S)c1 | – | inconclusive: 26.7 µM [inhibitor, partial curve]
30 | COc1ccc(CN2C3CCC2CC(NC(=O)c2cccc(F)c2)C3)cc1 (configuration not stated) | inactive: 3.83% | –
31 | CCn1c(SCC(=O)c2ccc(C)cc2)nnc1-c1ccoc1C | inactive: -6.53% | –
32 | CC(=O)Nc1ccc(C(=O)NNC(=O)C2CC2)cc1 | inactive: 1.01% | –
33 | COc1cc(OC)c(C(=O)NNC(=S)NC2CCCCC2)cc1OC | – | inconclusive: 29.9 µM [inhibitor, partial curve]
34 | COCC(=O)Nc1nc2n(n1)C(c1ccc(Cl)cc1)CC(c1ccc(OC)cc1)N2 (configuration not stated) | inactive: -24% | –
35 | CCOc1cc2c(c3c1C(c1ccccc1)N(S(=O)(=O)c1ccc(C)cc1)C3)C(=O)C=CC2=O (configuration not stated) | – | inconclusive: 26.7 µM [inhibitor, single point]
36 | Cc1ccc(NC(=O)CN2CCC(NC(=O)c3ccccc3F)CC2)cc1C | – | inconclusive: 23.8 µM [inhibitor, partial curve]
37 | O=C(CCNc1cccc(F)c1)c1cccc([N+](=O)[O-])c1 | – | inconclusive: 26.7 µM [inhibitor, partial curve]
38 | COc1ccc(Cc2c(-c3ccco3)nc3ccc(Cl)cn23)c(C)c1 | – | inconclusive: 15 µM [inhibitor, partial curve]
39 | O=C(O)CCn1cc(C2CC(c3ccccc3)=NN2c2ccccc2)c(-c2ccccc2)n1 (configuration not stated) | – | inconclusive: 23.8 µM [inhibitor, partial curve]
40 | C=CCN1CCN(C(c2cc(OC)ccc2OC)c2nnnn2CC2CCCO2)CC1 (configuration not stated) | – | active: 29.9 µM
41 | COc1ccc(S(=O)(=O)Nc2c(F)cccc2F)cc1 | – | active: 29.9 µM
42 | COc1ccc(Cl)cc1NC(=O)c1[nH]c(C)c(C(C)=O)c1C | – | inconclusive: 37.7 µM [inhibitor, single point]
43 | Cc1ccc(OCCN2C(=O)C(=O)c3cc(C)ccc32)cc1 | – | inconclusive: 26.7 µM [inhibitor, single point]
44 | O=C(CSc1nnc(CNC(=O)c2ccc(F)cc2)o1)NCc1ccc2c(c1)OCO2 | – | inconclusive: 16.8 µM [inhibitor, partial curve]
45 | O=C1Nc2cc(Cl)c(Cl)cc2N(O)N1c1ccc(Cl)cc1 | – | inconclusive: 21.2 µM [inhibitor, single point]
46 | NC(=O)C1CCN(C(=S)c2cccs2)CC1 | – | inconclusive: 28.2 µM [inhibitor, partial curve]
47 | Cc1sc2ncnc(SCC(=O)Nc3ccc(S(=O)(=O)N4CCOCC4)cc3)c2c1C | inactive: -8.21% | –
